Reference: article doi:10.1101/2020.06.15.152942
Where two headings read alike, the source gives them in different places. Results are given in words; binding and its absence hold for the method and conditions named. In cells and extracts the contact can be indirect. Here binding means that the protein was enriched with, or labelled near, the bait; the list need not be complete. Tags and fused reporters may be left off the sequences shown. One block for each molecule: values may come before it.

By UniProt entry, the sequences of proteins in these tests, tags left out.
UniProt Q02156: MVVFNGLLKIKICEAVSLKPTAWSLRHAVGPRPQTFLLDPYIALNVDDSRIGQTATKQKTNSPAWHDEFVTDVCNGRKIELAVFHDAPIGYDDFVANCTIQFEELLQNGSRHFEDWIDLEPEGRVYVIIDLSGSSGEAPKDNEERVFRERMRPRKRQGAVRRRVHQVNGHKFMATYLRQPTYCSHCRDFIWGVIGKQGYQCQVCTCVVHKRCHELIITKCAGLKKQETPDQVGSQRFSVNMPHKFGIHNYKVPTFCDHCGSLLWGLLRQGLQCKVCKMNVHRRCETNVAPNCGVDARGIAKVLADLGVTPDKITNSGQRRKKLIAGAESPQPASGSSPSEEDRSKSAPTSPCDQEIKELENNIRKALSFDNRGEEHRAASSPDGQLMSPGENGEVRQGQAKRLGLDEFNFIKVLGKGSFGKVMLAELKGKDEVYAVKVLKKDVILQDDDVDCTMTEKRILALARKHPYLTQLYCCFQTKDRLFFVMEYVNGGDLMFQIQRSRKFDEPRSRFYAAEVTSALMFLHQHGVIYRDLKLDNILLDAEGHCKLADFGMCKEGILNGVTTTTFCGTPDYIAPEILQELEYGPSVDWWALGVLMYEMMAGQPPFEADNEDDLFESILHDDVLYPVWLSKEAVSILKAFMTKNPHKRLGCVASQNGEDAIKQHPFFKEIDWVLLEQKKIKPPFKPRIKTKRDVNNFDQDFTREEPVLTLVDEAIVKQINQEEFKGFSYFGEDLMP

Experiments:
[1] = target: T1, N-terminal GST tagged PTP-PEST (human) (UniProt Q05209); test: affinity purification with mass spectrometry
T1 sequence: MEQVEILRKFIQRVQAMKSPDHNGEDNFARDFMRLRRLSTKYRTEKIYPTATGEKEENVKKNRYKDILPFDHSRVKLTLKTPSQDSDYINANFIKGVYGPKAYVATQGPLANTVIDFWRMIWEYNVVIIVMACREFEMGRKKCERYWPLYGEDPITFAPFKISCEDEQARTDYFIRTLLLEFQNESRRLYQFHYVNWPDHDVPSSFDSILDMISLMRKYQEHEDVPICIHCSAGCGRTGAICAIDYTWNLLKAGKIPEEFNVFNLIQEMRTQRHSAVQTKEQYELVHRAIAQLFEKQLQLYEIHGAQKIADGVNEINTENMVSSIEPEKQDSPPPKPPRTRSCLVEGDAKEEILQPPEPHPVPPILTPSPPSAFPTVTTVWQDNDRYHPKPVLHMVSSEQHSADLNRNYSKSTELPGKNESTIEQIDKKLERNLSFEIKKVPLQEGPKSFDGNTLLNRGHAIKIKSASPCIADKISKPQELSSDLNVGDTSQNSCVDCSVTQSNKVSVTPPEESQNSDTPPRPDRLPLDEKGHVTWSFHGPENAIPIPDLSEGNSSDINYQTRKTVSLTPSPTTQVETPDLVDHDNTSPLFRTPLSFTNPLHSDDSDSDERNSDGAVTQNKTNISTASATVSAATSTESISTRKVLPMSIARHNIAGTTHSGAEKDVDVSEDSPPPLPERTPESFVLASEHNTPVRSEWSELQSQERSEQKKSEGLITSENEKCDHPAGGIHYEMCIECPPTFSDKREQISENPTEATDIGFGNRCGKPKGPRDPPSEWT

[2] = target: T1, N-terminal GST tagged PTP-PEST (human); test: affinity purification with mass spectrometry; remark: listed apart in the source

binding [1]: binds
Molecule: PKC epsilon (from UniProt Q02156 1-737) (enzyme)

binding [2]: binds
B1: sarcolemmal membrane associated protein (SLAMP) (protein, UniProt Q14BN4 1-828)
chain: MPSALAIFTCRPNSHPFQERHVYLDEPIKIGRSVARCRPAQNNATFDCKVLSRNHALVWFDHKTGKFYLQDTKSSNGTFINSQRLSRGSEESPPCEILSGDIIQFGVDVTENTRKVTHGCIVSTIKLFLPDGMEARLRSDVIHAPLPSPVDKVAANTPSMYSQELFQLSQYLQEALHREQMLEQKLATLQRLLAITQEASDTSWQALIDEDRLLSRLEVMGNQLQACSKNQTEDSLRKELIALQEDKHNYETTAKESLRRVLQEKIEVVRKLSEVERSLSNTEDECTHLKEMNERTQEELRELANKYNGAVNEIKDLSDKLKVAEGKQEEIQQKGQAEKKELQHKIDEMEEKEQELQAKIEALQADNDFTNERLTALQVRLEHLQEKTLKECSSLEHLLSKSGGDCTFIHQFIECQKKLIVEGHLTKAVEETKLSKENQTRAKESDFSDTLSPSKEKSSDDTTDAQMDEQDLNEPLAKVSLLKDDLQGAQSEIEAKQEIQHLRKELIEAQELARTSKQKCFELQALLEEERKAYRNQVEESTKQIQVLQAQLQRLHIDTENLREEKDSEITSTRDELLSARDEILLLHQAAAKVASERDTDIASLQEELKKVRAELERWRKAASEYEKEITSLQNSFQLRCQQCEDQQREEATRLQGELEKLRKEWNALETECHSLKRENVLLSSELQRQEKELHNSQKQSLELTSDLSILQMSRKELENQVGSLKEQHLRDSADLKTLLSKAENQAKDVQKEYEKTQTVLSELKLKFEMTEQEKQSITDELKQCKNNLKLLREKGNNKPWPWMPMLAALVAVTAIVLYVPGLARASP

binding [2]: binds
B2: myotubularin related protein 6 (MTMR6) (enzyme, UniProt Q9Y217 1-621)
chain: MEHIRTTKVEQVKLLDRFSTSNKSLTGTLYLTATHLLFIDSHQKETWILHHHIASVEKLALTTSGCPLVIQCKNFRTVHFIVPRERDCHDIYNSLLQLSKQAKYEDLYAFSYNPKQNDSERLQGWQLIDLAEEYKRMGVPNSHWQLSDANRDYKICETYPRELYVPRIASKPIIVGSSKFRSKGRFPVLSYYHQDKEAAICRCSQPLSGFSARCLEDEHLLQAISKANPVNRYMYVMDTRPKLNAMANRAAGKGYENEDNYSNIRFQFVGIENIHVMRSSLQKLLEVNGTKGLSVNDFYSGLESSGWLRHIKAVMDAAIFLAKAITVENASVLVHCSDGWDRTSQVCSLGSLLLDSYYRTIKGFMVLIEKDWISFGHKFSERCGQLDGDPKEVSPVFTQFLECVWHLTEQFPQAFEFSEAFLLQIHEHIHSCQFGNFLGNCQKEREELKLKEKTYSLWPFLLEDQKKYLNPLYSSESHRFTVLEPNTVSFNFKFWRNMYHQFDRTLHPRQSVFNIIMNMNEQNKQLEKDIKDLESKIKQRKNKQTDGILTKELLHSVHPESPNLKTSLCFKEQTLLPVNDALRTIEGSSPADNRYSEYAEEFSKSEPAVVSLEYGVARMTC
